Measured values from PubChem BioAssay AID743402 (Broad Institute, 2014).
The whole screen tested about 1,200 compounds, of which about 140 (12%) were called active.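 The calls were made as follows: active = fitted curve falls past -35% activity change at a dose under twice the top valid dose, in every replicate test; inconclusive = replicate tests disagree on the call; inactive = the rest, including activity in the opposite direction.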 Most of the strongest results are missing from this list.

Assay: CFTR-F508del correctors, dose response, FRT cells, YFP quenching, cherry-pick (AID 743402);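 also: compounds act as correctors raising surface CFTR-F508del before acute activation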
Settings: FRT CFTR-F508del YFP iodide quenching, 24 h, channel opened with forskolin and a potentiator; at 26 µM (top of the series) unless noted

Activity change, negative = more quenching (active), inactive:
NS(=O)(=O)c1cc(Cl)c(Cl)c(S(N)(=O)=O)c1 0%
Cc1ccc(S(=O)(=O)N(C)C[C@@H]2OCCCC[C@@H](C)Oc3ccc(NS(=O)(=O)c4ccc(Cl)cc4)cc3C(=O)N([C@@H](C)CO)C[C@@H]2C)cc1 10.7%
CC(=O)OC1CCC2(C)C(=CCC3C2CCC2(C)C3CC3ON=C(C)C32)C1 (stereo not given) 13.3%
CCOc1ccc(NC(=O)CN(c2ccc([N+](=O)[O-])cc2)S(=O)(=O)c2ccccc2)cc1 20%
N#C/C(=C(/O)c1ccc(Br)s1)c1nc2ccccc2[nH]1 12.5%
COc1ccc(OC)c2[nH]c(C(=O)N/N=C/c3ccccc3O)cc12 3.12%
Cc1ccccc1OCC(=O)OCC(=O)NCCc1ccccc1 0%
CCOC(=O)c1c(C)[nH]c(C(=O)N/N=C/c2ccc(OC)c(OC)c2)c1C 20%
Cc1ccc(-c2ccc3c(c2)O[C@H](CN(C)C(=O)Nc2ccc(C(F)(F)F)cc2)[C@@H](C)CN([C@@H](C)CO)S3(=O)=O)cc1 3.12%
CN(Cc1ccccc1)S(=O)(=O)c1ccc(NC(=S)NC(=O)C2CCCC2)cc1 -3.33%
CC(=O)c1c(C)[nH]c(C(=O)OCc2nnc(-c3ccc([N+](=O)[O-])cc3)o2)c1C 10%
CCC(=O)c1ccc(OCC(=O)OCC(=O)N2CCc3ccccc3C2)cc1 14.3%
CN(C[C@@H]1N[C@H](CO)[C@H]1c1ccccc1)C(=O)c1ccccn1 10.3%
O=C(Nc1nc(-c2ccccn2)cs1)c1ccc(F)c(S(=O)(=O)N2CCOCC2)c1 8.28%
CCn1c(SC(C)C(=O)NCC2CCCO2)nc2ccccc21 (stereo not given) 3.33%
COc1ccc([C@H]2CC(=O)C=C(c3c(OC)cccc3OC)C2)cc1 0%
CC1CCN(C(=O)c2ccc(S(=O)(=O)N3CCCC3)cc2)CC1 9.79%
CCOc1cc(/C=N/NC(=O)N/N=C/c2ccc(O)c(OCC)c2)ccc1O -6.46%
Nc1ccc(S(=O)(=O)Nc2cnc3ccccc3n2)cc1 0%
Cn1nnnc1N=N/C(=N/Nc1ccccc1)c1ccccc1 3.33%
Cc1ccc(OCC(=O)Nc2ccc(CN3CCCCC3)cc2)c(C)c1 18.4%
CCCCNc1cc(C(=O)O)cc(S(N)(=O)=O)c1Oc1ccccc1 -32.1%
CC(C)(C)C(=O)OCc1nc(-c2ccc(O)c(O)c2)cs1 -6.67%
COc1cccc(Sc2ccccc2/C=N/NC(N)=O)c1 6.67%
CC(=O)Nc1cccc(-c2ccnc3c2CC(C)(C(=O)Nc2ccc4c(c2)OCO4)O3)c1 (stereo not given) 16.7%
CN1C(=O)c2cc(NC(=O)c3ccc(Cl)cc3)ccc2OC[C@@H]2O[C@H](CC(=O)NCc3cccc(F)c3)CC[C@H]21 27.6%
CC(C)C[C@@H](COCc1ccc(C(F)(F)F)cc1)N1CCN(C(=O)c2ccc(C(F)(F)F)cc2)CCC1=O 12.7%
Cc1noc(C)c1C(=O)NCC1COc2ccccc2O1 (stereo not given) 13.3%
CCN(CC)C(=S)SSC(=S)N(CC)CC 6.25%
COc1ccc(C(=O)NCC(c2ccco2)N2CCc3ccccc32)cc1 (stereo not given) 3.12%
Cc1cc(C(=O)N2CC=C(c3ccccc3)CC2)c2ccccc2n1 -18.7%
COc1ccc([C@H]2C[C@H](O)[C@@H](n3cc(-c4ccc(F)cc4)nn3)CN2Cc2cccs2)cc1 0%
Nc1c2c(nc3ccccc13)CCCC2 6.25%
O=C(c1ccccc1F)N1CC[C@@H]2[C@H](CO)Nc3ccc(Br)cc3[C@@H]21 9.58%
NC(=S)NN=Cc1nccc2c(N)cccc12 -3.12%
Cc1ccc(S(=O)(=O)Nc2ccc3c(c2)C(=O)N([C@@H](C)CO)C[C@H](C)[C@H](CN(C)S(=O)(=O)c2ccc(C)cc2)OCCCC[C@@H](C)O3)cc1 -3.12% [at 23.5 µM]
CCC1(C)Cc2ccccc2-c2nc[nH]c(=O)c21 (stereo not given) -7.69%
COc1ccc2[nH]c(C(=O)N/N=C/c3ccc(OC)c(O)c3)cc2c1 0%
C[C@@H]1CN([C@H](C)CO)C(=O)c2cc(NS(=O)(=O)c3ccc(Cl)cc3)ccc2O[C@@H]1CN(C)Cc1ccc(-c2ccccc2)cc1 20%
O=C(c1[nH]ncc1-c1ccc(Cl)cc1)C1CO1 (stereo not given) 22.5%
C[C@@H]1CN([C@@H](C)CO)C(=O)c2cc(NS(=O)(=O)c3ccc(Cl)cc3)ccc2O[C@@H]1CN(C)Cc1ccc(C(F)(F)F)cc1 5.3% [at 23.5 µM]
COc1ccc(OCC(=O)NNC(=O)CCc2ccccc2)cc1 12.9%
CCOC(=O)c1sc(NC(=O)c2c(CC)noc2C)nc1C 17.9%
Cc1ccc(C)c(NC(=O)CSc2nc3c(c(=O)n2C)SC(C)C3)c1 (stereo not given) 7.96%
COc1cc(C(O)CO)ccc1OS(=O)(=O)O (stereo not given) 0%
CC1(C(=O)NCc2ccco2)Cc2c(-c3ccc4c(c3)OCO4)ccnc2O1 (stereo not given) 3.33%
Cc1ccc(/C=N/NC(=O)c2ccc3ccccc3c2)s1 0%
COc1ccccc1NC1=C(NC(C)=O)C(=O)c2ccccc2C1=O 6.67%
C[C@@H]1CN([C@H](C)CO)S(=O)(=O)c2ccc(-c3ccccc3)cc2O[C@H]1CN(C)Cc1ccccn1 8.74%
CC(=O)NC(c1ccc(Cl)cc1)c1ccc2cccnc2c1O (stereo not given) 0%
CCOc1ccc(C(=O)N[C@H](C(=O)Nc2cccc(S(=O)(=O)N3CCCCC3)c2)C(C)C)cc1 3.33%
CCOC(=O)[C@]12CCCC=C1N(Cc1cccc3ccccc13)C(=O)[C@H](CC(=O)NCc1cccc(C(F)(F)F)c1)C2 -7.14%
COc1ccccc1C(=O)Nc1onc(C)c1C#N 6.25%
COCC(=O)N1C[C@@H]2[C@H](c3ccccc31)[C@H](CO)N2Cc1ccc(OC)cc1 5.3%
Nc1c(C(=O)c2ccco2)oc2ccccc12 3.85%
CCCC(=O)NC(c1ccc(C(C)C)cc1)c1ccc2cccnc2c1O (stereo not given) 22.3%
CC(C)c1cccc(-c2csc(C(O)c3ccco3)n2)c1 (stereo not given) 0%
COc1ccc(S(=O)(=O)N2CC[C@@H]3[C@@H](CO)N(C)c4ccc(-c5ccc(F)cc5)cc4[C@@H]32)cc1 -13.4%
COc1ccc(S(=O)(=O)N2CC[C@@H]3[C@@H](CO)Nc4ccc(-c5ccc(C#N)cc5)cc4[C@@H]32)cc1 -3.12%
Cc1cccc(N(C)S(=O)(=O)c2ccc(-c3cc(C)no3)s2)c1 -7.96%
Cc1cc(C(=O)N/N=C/c2ccc3c(c2)OCO3)c2ccccc2n1 6.67%
CCOC(=O)N1CCN(C(=O)C2CCC(=O)N(CCCN3CCCC3=O)C2)CC1 (stereo not given) 11.9%
COc1ccc(C2=Nn3c(nnc3-c3ccccc3F)SC2)cc1OC1CCOC1 (stereo not given) -10%
CCOc1ccc(C(=O)COC(=O)Cc2n[nH]c(=O)c3ccccc23)cc1 0%
CN(c1ccc(O)cc1)c1nc(-c2cccs2)cs1 -12.9%
CCCC(=O)Nc1ccc2c(c1)nc(CN1CCN(C(=O)OCC)CC1)n2CC 10%
COc1cc(OC)cc(C(=O)OCC(=O)NC(c2ccccc2)c2ccccc2)c1 3.33%
COc1ccc(CNC(=O)c2c(C)oc3c2C(=O)c2ccccc2C3=O)cc1 -29%
COc1ccc(CN(C)C[C@H]2OCCCC[C@H](C)Oc3ccc(NC(=O)Nc4ccc(C(F)(F)F)cc4)cc3C(=O)N([C@H](C)CO)C[C@H]2C)cc1 3.57%
CN(C)CCCN1c2ccccc2Sc2ccccc21 10%
COc1ccc(CCNc2ncnc3c2oc2ccccc23)cc1OC -3.57%
Cn1cccc1/C=C1\SC(=Nc2ccc(O)cc2)NC1=O -15.6%
Cc1ccc(/C=N/NC(=O)C2COc3ccccc3O2)s1 (stereo not given) -12.5%
Cc1onc(-c2ccccc2Cl)c1C(=O)N1CCN(c2cccc(Cl)c2)CC1 10%
COc1ccccc1NS(=O)(=O)c1cc(-c2cnc(C3CC3)o2)ccc1C 11.5%
CC1(C(=O)NCc2cccs2)Cc2c(-c3ccc4c(c3)OCO4)ccnc2O1 (stereo not given) 0%
O=C1CC(c2ccccc2)CC2=C1C=Nc1ccccc1N2 (stereo not given) 18.8%
Cc1ccc(C(=O)N/N=C/c2cc(Br)ccc2O)cn1 16%
COc1ccc([C@@H]2[C@@H]3C(=O)N(C(C)(C)C)C(=O)[C@@H]3[C@]3(Cc4ccccc4)C(=O)N(c4ccc(C(F)(F)F)cc4)C(=O)N23)cc1 6.67%
NS(=O)(=O)c1ccc(NNC(=O)c2ccc(Br)o2)c([N+](=O)[O-])c1 -3.12%
Fc1ccc(/C=N/NC(=S)Nc2ccc(Cl)cc2Cl)cc1 16.2%
COc1ccc(C(=O)Nc2ccccc2C(=O)Nc2ccccc2)cc1 -7.42%
N#CC1=C(N)Oc2cc(N)ccc2C1c1cccc(F)c1 (stereo not given) 6.67%
COc1ccc2c(c1)C(O)C(CO)C(C(=O)O)C2 (stereo not given) 6.25%
CCCNC(=O)N1CC2(CN(CC3CCCCC3)C2)c2c(n(C)c3cc(OC)ccc23)[C@H]1CO 3.57%

Gathered by group: those above containing a COOH group
Activity change, negative = more quenching (active), inactive:
CCCCNc1cc(C(=O)O)cc(S(N)(=O)=O)c1Oc1ccccc1 -32.1%
COc1ccc2c(c1)C(O)C(CO)C(C(=O)O)C2 (stereo not given) 6.25%

Two compounds picked at random from the list so far:
Activity change, negative = more quenching (active), inactive:
N#CC1=C(N)Oc2cc(N)ccc2C1c1cccc(F)c1 (stereo not given) 6.67%
COc1cc(C(O)CO)ccc1OS(=O)(=O)O (stereo not given) 0%
